Paper PMC12040169 (PLOS Biology, 2025)
Some of the results follow.

system: T1, CTL2-GFP (C. trachomatis L2/434/Bu, GFP-expressing); set-up: species or system HeLa; Intracellular C. trachomatis growth in HeLa cells, bulk GFP fluorescence relative to DMSO; details: bulk GFP, single well; 28.5 h, 10 µM; inhibitor
T1 construct: L2/434/Bu, GFP-expressing

Row | SMILES | % of control remaining [%]
1 | CCC(CC)(CC(=O)Nc1ccc(N2CCCC2=O)c(C)c1)C(=O)O [CBK297881] | 114.184
2 | Cc1ccc(N2CC(C(=O)NCCc3ccc(S(N)(=O)=O)cc3)CC2=O)cc1 (stereo not shown) [CBK267531] | 151.189
3 | Cc1c(CN(Cc2ccc(F)cc2)CC2CCCO2)cnn1C (stereo not shown) [CBK282589] | 108.662
4 | N/C(=N/c1ccccn1)C(F)(F)F [CBK021049] | 112.782
5 | CS(=O)(=O)c1ccc(C(=O)Nc2nccs2)cc1 [CBK255213] | 124.605
6 | O=C(c1ccc(OC(F)F)cc1)N1CCCCC1 [CBK074223] | 125.659
7 | O=C(NCc1ccccc1Cl)C1CCCN(S(=O)(=O)c2ccccc2)C1 (stereo not shown) [CBK269086] | 146.576
8 | O=C(O)c1ccc(Oc2ccc([N+](=O)[O-])cc2)cc1C(=O)O [CBK260961] | 100
9 | O=C(c1cccnc1)N1CCN(CC2(c3ccccc3)CC2)CC1 [CBK282906] | 110.022
10 | O=C1CCCN1CCCNC(=O)N1CCN(Cc2ccccc2)CC1 [CBK155658] | 93.5858
11 | NC(=O)C(=O)Nc1nc(-c2ccccc2)cs1 [CBK263005] | 100
12 | Cc1c(C(=O)N2CCNC(=O)C2C(C)C)cnn1-c1ccc(Br)cc1 (stereo not shown) [CBK306472] | 70.2528
13 | O=C(O)c1ccccc1NS(=O)(=O)Cc1ccccc1[N+](=O)[O-] [CBK042373] | 132.91
14 | CCOC(=O)c1c(NC(=O)CC2Nc3ccccc3NC2=O)sc(C)c1C (stereo not shown) [CBK263381] | 121.12
15 | CCc1nc2c(OCC=C(C)C)cccn2c1N(C)C(=O)c1cccc(OC)c1 [CBK147448] | 110.857
16 | Cc1cccc(Cn2nc(C)c(NC(=O)COc3ccccc3)c2C)c1 [CBK270007] | 125.409
17 | Cc1c(NC(=O)CCCC(=O)O)cccc1C(=O)O [CBK265525] | 100
18 | Cc1cc(Cl)c(S(=O)(=O)N(C)C)cc1OCC(=O)Nc1ccccc1 [CBK269705] | 86.0723
19 | Cn1cc(N2CCN(C(=O)CCOc3ccccc3)CC2)cn1 [CBK305473] | 82.8283
20 | Clc1cccc(-c2nc(NCCCN3CCOCC3)c3ccccc3n2)c1 [CBK267309] | 163.912
21 | CCCS(=O)(=O)N1CCCC(Cc2ccccc2C)(C(=O)OCC)C1 (stereo not shown) [CBK307502] | 92.0754
22 | CCc1cc(-c2n[nH]cc2-c2nc(C)cs2)c(O)cc1OC [CBK287934] | 13.626
23 | CCNS(=O)(=O)c1ccc(NS(=O)(=O)c2cc(C(=O)O)ccc2C)cc1 [CBK295296] | 137.003
24 | Cc1ccc(NC(=O)Nc2ccc3cc(Br)cnc3n2)c(C)c1 [CBK063269] | 145.714
25 | N#Cc1ccc(NCC(=O)Nc2ncn(Cc3cccnc3)n2)cc1 [CBK306343] | 134.776
26 | CC(CNC(=O)CCc1cn(C)c2ccccc12)N1CCOCC1 (stereo not shown) [CBK281996] | 162
27 | Nc1ncc(-c2ccco2)nc1N1CCOCC1 [CBK063456] | 113.401

From compound 15 up to 16, copied from above:
Row | SMILES | % of control remaining [%]
15 | CCc1nc2c(OCC=C(C)C)cccn2c1N(C)C(=O)c1cccc(OC)c1 [CBK147448] | 110.857
16 | Cc1cccc(Cn2nc(C)c(NC(=O)COc3ccccc3)c2C)c1 [CBK270007] | 125.409

(list continues)

Row | SMILES | % of control remaining [%]
28 | O=C(Cc1ccc(F)cc1)NCc1nnc(-c2cccs2)o1 [CBK284640] | 166.702
29 | COCCC(=O)Nc1ccc(N2CCNCC2)nc1 [CBK004749T] | 98.829
30 | O=C(Cc1ccc(Cl)c(Cl)c1)N1CCCC2(CCN(Cc3ccccc3)C2)C1 (stereo not shown) [CBK136872] | 134.953
31 | O=C1NCC2(CCN(C(=O)C3CC3)CC2)Oc2ccccc21 [CBK282918] | 114.613
32 | CC(C)C(=O)N1CC2(CCN(CCS(=O)(=O)c3ccccc3)CC2)c2ccccc21 [CBK126726] | 86.78
33 | COCCNc1cc(-c2ccco2)ncn1 [CBK090796] | 141.382
34 | COc1ccc(-c2nc(-c3ccncc3)ncc2C(=O)NC2CCCCC2)cc1 [CBK291111] | 141.482
35 | O=C(NC(=S)Nc1cccc(Cl)c1)c1cncc(Br)c1 [CBK264618] | 116.409
36 | CC(C)NC(=O)N1CCN2C(=O)c3cc(-c4ccc(Cl)cc4)ccc3NC(=O)[C@H]2C1 [CBK289596] | 118.274
37 | CC(C)S(=O)(=O)n1ccn(-c2ccc(N(C)C)cc2)c1=O [CBK106600] | 124.981
38 | FC(F)(F)c1cccnc1Sc1nc[nH]n1 [CBK115213] | 97.6116
39 | CCc1cc(Br)ccc1S(=O)(=O)NCCc1cccs1 [CBK045033] | 76.1247
40 | O=C(Cn1cccc2cc(C3CCCNC3)nc1-2)N1CCCC1 (stereo not shown) [CBK285086] | 125.937
41 | CSc1nsc(SCC(=O)OC2CC3CCC2(C)C3(C)C)n1 (stereo not shown) [CBK268941] | 137.201
42 | CCOc1ccc(C(=O)C2=C(O)C(=O)N(CCN(C)C)C2c2ccc(N(C)C)cc2)c(C)c1 (stereo not shown) [CBK264603] | 126.221
43 | CCN1CCC2(CC1)NC(=O)Cc1cc(OC)c(OC)c(OC)c12 [CBK039868] | 110.696
44 | CN(CCO)C(=O)CCn1c(C(F)F)cc2cccnc21 [CBK282805] | 126.15
45 | CC(=O)NCC1CN(c2ccc3c(c2)CCN3C(=O)OC(C)(C)C)C(=O)O1 (stereo not shown) [CBK012600] | 158.959
46 | CN(C(=O)C1CCN(S(=O)(=O)c2cn(C)cn2)CC1)C(c1ccc(F)cc1)c1ccccn1 (stereo not shown) [CBK060229] | 162.653
47 | O=C(Nc1cccc2cccnc12)c1ccc(Cl)c(Cl)c1 [CBK261318] | 122.132
48 | COC(=O)COc1ccc(C2Nc3c(Cl)ccc(C(=O)O)c3C3C=CCC32)cc1 (stereo not shown) [CBK268961] | 108.069
49 | COC(=O)C1=C(C(=O)OC)SC(=C2C(=S)C(C)(C)N(C(=O)c3ccc4ccccc4c3)c3cc(C)ccc32)S1 [CBK261622] | 93.8491
50 | COC(=O)c1ccc(S(=O)(=O)C(F)(F)F)cc1N [CBK018172] | 107.871
51 | CCN(CC)C(=O)c1[nH]c2ccccc2c1NS(=O)(=O)c1cc(Br)ccc1OC [CBK050113] | 141.848
52 | O=C(COc1ccccc1)N1CCC(c2cccc(Cc3ccccc3F)n2)CC1 [CBK286211] | 105.892
53 | CCC(NC(=O)Nc1cc(N2CCOCC2)ccc1Cl)c1nc(C)no1 (stereo not shown) [CBK306526] | 118.442
54 | O=C(CCCN1C(=O)c2ccccc2C1=O)Oc1ccc(-c2ccccc2)cc1 [CBK267144] | 153.709

Pulled one by one from the entries so far, 5 records:
Row | SMILES | % of control remaining [%]
38 | FC(F)(F)c1cccnc1Sc1nc[nH]n1 [CBK115213] | 97.6116
50 | COC(=O)c1ccc(S(=O)(=O)C(F)(F)F)cc1N [CBK018172] | 107.871
28 | O=C(Cc1ccc(F)cc1)NCc1nnc(-c2cccs2)o1 [CBK284640] | 166.702
46 | CN(C(=O)C1CCN(S(=O)(=O)c2cn(C)cn2)CC1)C(c1ccc(F)cc1)c1ccccn1 (stereo not shown) [CBK060229] | 162.653
35 | O=C(NC(=S)Nc1cccc(Cl)c1)c1cncc(Br)c1 [CBK264618] | 116.409

(further entries)

Row | SMILES | % of control remaining [%]
55 | Cn1nccc1NS(=O)(=O)c1cc(C(=O)O)c(Cl)cc1F [CBK062712] | 87.3371
56 | Cc1csc2c(N3CCCC3CC(=O)c3cnn(C)c3)ncnc12 (stereo not shown) [CBK304429] | 102.465
57 | O=C1CC(=O)N(Cc2ccc(F)cc2)C(=O)N1 [CBK291156] | 146.921
58 | Cc1cccn2cc(CNC(=O)C(C)(C)C)nc12 [CBK304348] | 154.933
59 | COc1ccc(-c2cc(N3CCCN(C)CC3)n3nccc3n2)cc1 [CBK037244] | 110.242
60 | C[C@H](NC(=O)N1CCC(c2nc(-c3ccccc3)c3ccccn23)CC1)c1ccccc1 [CBK047086] | 125.599
61 | Cc1ncc([N+](=O)[O-])n1CC(=O)Nc1ccccc1F [CBK269335] | 142.288
62 | CN1CCOc2cc(S(=O)(=O)Nc3cccnc3N3CCOCC3)ccc21 [CBK062299] | 104.785
63 | Cc1cccc(CN2CCC(NC(=O)Cn3cnnn3)CC2)c1 [CBK305649] | 121.406
64 | COc1ccc(F)c(CN(CC(C)(C)CN)C(=O)Nc2c(F)cccc2F)c1 [CBK002405C] | 126.698
65 | c1ccc(CCCN2CCN(Cc3cccc4ccccc34)CC2)cc1 [CBK264237] | 132.19
66 | CN(C)c1ccc(-c2cnc3[nH]c(=O)n(C4CCCC4)c3n2)cc1 [CBK064964] | 122.952
67 | O=C(Nc1ccccc1)c1cccc(S(=O)(=O)NCc2ccncc2)c1 [CBK269980] | 77.891
68 | Cc1nc2ccc(C(=O)O)cc2c2c1CC(CN)O2 (stereo not shown) [CBK286974] | 124.851
69 | c1ccc2c(c1)CCCN2c1ncnc2n[nH]cc12 [CBK287886] | 106.246
70 | C[C@H]1[C@@H]2[C@@H](O)C([C@H](C)C(=O)N3CCCCC3)CC[C@@]2(C)CC[C@@H]1NC(=O)c1cnccn1 (stereo partly shown) [CBK289448] | 104.481
71 | CN1C(=O)CC2(C1=O)C(=O)N(Cc1nc(-c3ccc(Cl)cc3)no1)c1ccc(F)cc12 (stereo not shown) [CBK075442] | 122.137
72 | O=C(c1ccc(O)nc1)N1CCN(Cc2cc(=O)n3ccsc3n2)CC1 [CBK306098] | 102.421
73 | COc1ccccc1N1C(=O)CC(SC(=N)N/N=C(\C)c2ccc(O)cc2)C1=O (stereo not shown) [CBK262766] | 107.5
74 | COc1cc(CNC(=O)NC(=O)C2CCN(CCCc3ccc(Cl)c(Cl)c3)CC2)cc(OC)c1OC [CBK034858] | 165.446
75 | NS(=O)(=O)c1ccc(NC(=O)CCCOc2ccc(Cl)cc2Cl)cc1 [CBK261536] | 100
76 | O=C(CSc1nc(=O)cc(O)[nH]1)N1CCc2ccccc21 [CBK269350] | 178.515
77 | CCCn1c(SCC(=O)NCc2ccc(OC)cc2)n[nH]c1=O [CBK297549] | 148.323
78 | c1ccc2c(-c3cn4ccnc4c(Nc4ccc5cn[nH]c5c4)n3)cccc2c1 [CBK066346] | 133.509
79 | CN1CCN(c2cc(CNC(=O)c3cc(O)nc4ccccc34)ccn2)CC1 [CBK279658] | 141.561
